# Test results: patent US20110046349 (published 2011)
# Key:
# [1] = general procedure: hybrid (solid and solution phase) peptide synthesis; CTC resin; DIC/HOBt hydrate on solid phase (PyBOP, TOTU, TCTU for some couplings); TBTU, TO; details: whole synthesis
# [2] = general procedure: hybrid (solid and solution phase) peptide synthesis; CTC resin (fragments with C-terminal acid); Sieber amide resin (fragments with C-terminal amide); DIC/HOBt hydrate on solid phase (PyBOP, TOTU, TCTU for some couplings); TBTU, TO; details: for crude purity (method not given): HPLC; for step yield: recovery yield
substance,measurement,setting,value
Boc-^1His(Trt)-Gly-Glu(OtBu)-Gly-^5Thr(tBu)-Phe-Thr(tBu)-Ser(tBu)-Asp(OtBu)-^10Leu-OH,crude mass,[1]; scale 11.0 mol,18.3 kg
same,crude purity (method not given),[2]; whole synthesis,95%
same,crude yield,"[2]; whole synthesis, recovery yield based on target batch size of 11.0 mol",99%
Boc-^1His(Trt)-Gly-Glu(tBu)-^4Gly-PsiThr-Phe-Thr(tBu)-^8Ser(tBu)-Asp(tBu)-Leu-PsiSer-^12Lys(Boc)-OH,crude purity (method not given),[2]; whole synthesis,100%
Fmoc-Phe-Ile-Glu(OtBu)-^25Trp(Boc)-Leu-Lys(Boc)-Asn(Trt)-Gly-OH,crude mass,[1]; scale 17 mol,27.4 kg
same,crude purity (method not given),[2]; whole synthesis,95%
same,crude yield,"[2]; whole synthesis, recovery yield based on target batch size of 17 mol",93%
Fmoc-Phe-Ile-Glu(OtBu)-^25Trp(Boc)-Leu-Lys(Boc)-Asn(Trt)-Gly-^30Gly-Pro-Ser(tBu)-Ser(tBu)-Gly-^35Ala-Pro-Pro-Ser(tBu)-Lys(Boc)-^40Lys(Boc)-Lys(Boc)-Lys(Boc)-Lys(Boc)-Lys(Boc)-NH2,crude purity (method not given),[2]; coupling step,97%
same,step yield,"[2]; coupling step, non-corrected",68%
Fmoc-Ser(tBu)-Lys(Boc)-Gln(Trt)-Met-^15Glu(OtBu)-Glu(OtBu)-Glu(OtBu)-Ala-Val-^20Arg(Pbf)-Leu-OH,crude mass,[1]; scale 8.4 mol,20.5 kg
same,crude purity (method not given),[2]; whole synthesis,94%
same,crude yield,"[2]; whole synthesis, recovery yield based on target batch size of 8.4 mol",104%
Fmoc-Ser-Lys-Gln-Met-^15Glu-Glu-Glu-Ala-Val-^20Arg-Leu-Phe-Ile-Glu-^25Trp--Leu-Lys-Asn-Gly-^30Gly-Pro-Ser-Ser-Gly-^35Ala-Pro-Pro-Ser-Lys-^40Lys-Lys-Lys--Lys-Lys-NH2,crude purity (method not given),[2]; coupling step,71%
same,step yield,[2]; coupling step,89%
Fmoc-^11Ser(tBu)-Lys(Boc)-Gln(Trt)-Met-Glu(tBu)-^16Glu(tBu)-Glu(tBu)-Ala-Val-Arg(Pbf)-^22Leu-Phe-Ile-Glu(tBu)-Trp(Boc)-^26Leu-OH,crude purity (method not given),[2]; whole synthesis,70.60%
Fmoc-^11Ser(tBu)-Lys(Boc)-Gln(Trt)-Met-Glu(tBu)-^16Glu(tBu)-Glu(tBu)-Ala-Val-^20Arg(Pbf)-Leu-Phe-Ile-Glu(tBu)-^26Trp(Boc)-OH,crude purity (method not given),[2]; whole synthesis,69.60%
Fmoc-^13Gln(Trt)-Met-Glu(tBu)-Glu(tBu)-Glu(tBu)-Ala-^19Val-Arg(Pbf)-Leu-Phe-Ile-Glu(tBu)-^25Trp(Boc)-Leu-Lys(Boc)-Asn(Trt)-^29Gly-OH,crude purity (method not given),[2]; whole synthesis,85.74%
Fmoc-^13Gln(Trt)-Met-Glu(tBu)-Glu(tBu)-Glu(tBu)-^18Ala-Val-Arg(Pbf)-Leu-Phe-^23Ile-Glu(tBu)-Trp(Boc)-^26Leu-OH,crude purity (method not given),[2]; whole synthesis,75.50%
Fmoc-^13Gln(Trt)-Met-Glu(tBu)-Glu(tBu)-^17Glu(tBu)-Ala-Val-Arg(Pbf)-^21Leu-Phe-Ile-Glu(tBu)-^25Trp(Boc)-OH,difficulty met,[2]; whole synthesis,with the same problems as encoutered in example 25b
same,crude purity (method not given),[2]; whole synthesis,50.69%
Fmoc-^22Phe-Ile-Glu(tBu)-Trp(Boc)-Leu-^27Lys(Boc)-Asn(Trt)-Gly-Gly-^31Pro-OH,crude purity (method not given),[2]; whole synthesis,95.97%
Fmoc-^22Phe-Ile-Glu(tBu)-Trp(Boc)-Leu-^27Lys(Boc)-Asn(Trt)-Gly-^30Gly-OH,crude purity (method not given),[2]; whole synthesis,95.97%
Fmoc-^32Ser(tBu)-Ser(tBu)-Gly-Ala-Pro-Pro-^38Pro-OH,crude purity (method not given),[2]; whole synthesis,62.77%
H-Phe-Ile-Glu(OtBu)-^25Trp(Boc)-Leu-Lys(Boc)-Asn(Trt)-Gly-^30Gly-Pro-Ser(tBu)-Ser(tBu)-Gly-^35Ala-Pro-Pro-Ser(tBu)-Lys(Boc)-^40Lys(Boc)-Lys(Boc)-Lys(Boc)-Lys(Boc)-Lys(Boc)-NH2,crude purity (method not given),[2]; late stage modification step,73%
same,step yield,[2]; late stage modification step,99%
H-^30Gly-Pro-Ser(tBu)-Ser(tBu)-Gly-^35Ala-Pro-Pro-Ser(tBu)-Lys(Boc)-^40Lys(Boc)-Lys(Boc)-Lys(Boc)-Lys(Boc)-Lys(Boc)-NH2,crude purity (method not given),[2]; whole synthesis,78%
same,crude yield,"[2]; whole synthesis, recovery yield based on target batch size of 0.54 mmol",84%
P2-Ser-Lys-Gln-Met-^15Glu-Glu-Glu-Ala-Val-^20Arg-Leu-Phe-Ile-Glu-^25Trp-Leu--Lys-Asn-Gly-^30Gly-Pro-Ser-Ser-Gly-^35Ala-Pro-Pro-Ser-Lys-^40Lys-Lys-Lys-Lys--Lys-NH2,crude purity (method not given),[2]; late stage modification step,66%
P3-^1His-Gly-Glu-Gly-^5Thr-Phe-Thr-Ser-Asp-^10Leu-Ser-Lys-Gln-Met-^15G1u-Glu--Glu-Ala-Val-^20Arg-Leu-Phe-Ile-Glu-^25Trp-Leu-Lys-Asn-Gly-^30Gly-Pro-Ser-Ser--Gly-^35Ala-Pro-Pro-Ser-Lys-^40Lys-Lys-Lys-Lys-Lys-NH2,crude purity (method not given),[2]; coupling step,76%
same,step yield,[2]; coupling step,97%
